Test results as given in the M2OR odorant receptor database.
Some of the results follow. Calls are pooled over several reports, among them a noisy single-well screen.

Assays:
Settings in all cases: stereoisomer not certain
O52I2 [1] = tested on: T1, O52I2
T1 sequence (whole entry): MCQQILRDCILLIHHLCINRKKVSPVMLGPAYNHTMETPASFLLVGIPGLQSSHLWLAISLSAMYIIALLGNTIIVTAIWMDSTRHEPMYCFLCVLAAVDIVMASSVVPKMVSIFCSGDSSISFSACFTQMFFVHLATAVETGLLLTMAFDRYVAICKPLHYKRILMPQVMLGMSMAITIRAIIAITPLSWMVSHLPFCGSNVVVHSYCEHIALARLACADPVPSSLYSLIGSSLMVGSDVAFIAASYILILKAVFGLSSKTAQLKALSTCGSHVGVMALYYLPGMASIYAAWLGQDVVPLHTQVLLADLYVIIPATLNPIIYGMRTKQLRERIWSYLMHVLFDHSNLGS
Procedure, shortened: (§1)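 Assay methods differ from source to source, frequently being transient luciferase assays in mammalian cell lines. For each receptor–molecule pair, the label responsive (active) applies when the original authors judged the measured signal statistically different from baseline, and non-responsive (inactive) applies otherwise.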

O52I2 [2] = tested on: T2, O52I2; remark: listed apart in the source
T2 sequence (whole entry): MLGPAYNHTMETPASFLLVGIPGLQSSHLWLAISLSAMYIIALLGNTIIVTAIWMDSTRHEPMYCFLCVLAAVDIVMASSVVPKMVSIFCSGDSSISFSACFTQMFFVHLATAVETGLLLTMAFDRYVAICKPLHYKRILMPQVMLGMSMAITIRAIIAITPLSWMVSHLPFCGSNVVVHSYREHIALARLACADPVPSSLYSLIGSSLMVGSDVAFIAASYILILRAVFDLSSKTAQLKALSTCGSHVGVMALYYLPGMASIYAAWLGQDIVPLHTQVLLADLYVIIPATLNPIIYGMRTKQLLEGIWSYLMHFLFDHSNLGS
Procedure, shortened: as §1

O52J3 = tested on: T3, O52J3
T3 sequence (whole entry): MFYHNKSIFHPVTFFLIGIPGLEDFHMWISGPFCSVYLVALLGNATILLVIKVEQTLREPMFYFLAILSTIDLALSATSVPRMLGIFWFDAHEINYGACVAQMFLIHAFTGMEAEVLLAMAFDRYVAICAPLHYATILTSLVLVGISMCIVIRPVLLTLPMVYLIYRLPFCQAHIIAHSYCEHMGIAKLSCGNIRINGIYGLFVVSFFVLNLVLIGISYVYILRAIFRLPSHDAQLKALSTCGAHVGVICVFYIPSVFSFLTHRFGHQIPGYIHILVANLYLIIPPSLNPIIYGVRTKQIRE
Procedure, shortened: as §1

O52L1 = tested on: T4, O52L1
T4 sequence (whole entry): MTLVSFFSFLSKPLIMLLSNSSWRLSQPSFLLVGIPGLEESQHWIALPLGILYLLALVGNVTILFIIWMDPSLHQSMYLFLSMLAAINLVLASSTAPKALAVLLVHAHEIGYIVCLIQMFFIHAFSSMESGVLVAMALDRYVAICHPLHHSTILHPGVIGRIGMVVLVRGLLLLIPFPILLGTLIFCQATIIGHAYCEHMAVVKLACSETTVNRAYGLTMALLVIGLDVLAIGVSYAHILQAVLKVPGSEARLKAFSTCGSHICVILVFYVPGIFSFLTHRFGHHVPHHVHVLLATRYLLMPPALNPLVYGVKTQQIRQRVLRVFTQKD
Procedure, shortened: as §1

O52L2 = tested on: T5, O52L2
T5 sequence (whole entry): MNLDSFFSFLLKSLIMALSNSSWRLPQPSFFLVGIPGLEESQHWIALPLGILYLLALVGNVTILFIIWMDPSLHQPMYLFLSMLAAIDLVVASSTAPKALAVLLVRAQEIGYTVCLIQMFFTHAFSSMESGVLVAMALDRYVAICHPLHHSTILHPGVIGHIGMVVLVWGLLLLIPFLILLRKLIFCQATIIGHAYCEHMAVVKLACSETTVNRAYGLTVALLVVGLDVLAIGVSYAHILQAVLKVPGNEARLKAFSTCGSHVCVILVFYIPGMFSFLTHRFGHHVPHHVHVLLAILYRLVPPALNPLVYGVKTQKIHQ
Procedure, shortened: as §1

O52M1 = tested on: T6, O52M1
T6 sequence (whole entry): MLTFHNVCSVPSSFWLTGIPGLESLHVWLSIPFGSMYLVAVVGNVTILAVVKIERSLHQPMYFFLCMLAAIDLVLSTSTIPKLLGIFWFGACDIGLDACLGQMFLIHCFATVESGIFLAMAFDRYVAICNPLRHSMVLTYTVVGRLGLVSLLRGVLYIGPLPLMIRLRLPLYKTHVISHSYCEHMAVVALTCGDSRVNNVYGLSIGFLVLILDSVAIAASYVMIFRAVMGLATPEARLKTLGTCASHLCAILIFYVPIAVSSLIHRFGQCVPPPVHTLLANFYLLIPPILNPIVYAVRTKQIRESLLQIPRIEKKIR
Procedure, shortened: as §1

O52N1 = tested on: T7, O52N1
T7 sequence (whole entry): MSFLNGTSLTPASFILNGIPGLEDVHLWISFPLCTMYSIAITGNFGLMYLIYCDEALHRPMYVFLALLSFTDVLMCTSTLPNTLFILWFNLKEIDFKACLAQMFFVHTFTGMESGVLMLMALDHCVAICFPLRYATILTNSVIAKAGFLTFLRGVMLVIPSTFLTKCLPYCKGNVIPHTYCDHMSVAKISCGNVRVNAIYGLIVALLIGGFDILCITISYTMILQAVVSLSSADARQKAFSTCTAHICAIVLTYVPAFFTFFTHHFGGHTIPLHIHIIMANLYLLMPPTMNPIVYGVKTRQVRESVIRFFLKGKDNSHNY
Procedure, shortened: as §1

O52N2 = tested on: T8, O52N2
T8 sequence (whole entry): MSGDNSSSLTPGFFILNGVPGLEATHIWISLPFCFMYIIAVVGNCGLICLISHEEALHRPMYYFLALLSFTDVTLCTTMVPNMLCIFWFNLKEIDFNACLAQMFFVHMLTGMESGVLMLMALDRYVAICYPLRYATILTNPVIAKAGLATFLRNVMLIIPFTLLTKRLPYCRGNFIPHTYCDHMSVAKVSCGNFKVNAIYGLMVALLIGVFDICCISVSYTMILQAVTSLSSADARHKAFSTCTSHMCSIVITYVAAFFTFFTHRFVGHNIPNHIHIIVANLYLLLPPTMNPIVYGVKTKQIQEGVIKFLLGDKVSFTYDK
Procedure, shortened: as §1

O52N4 = tested on: T9, O52N4
T9 sequence (whole entry): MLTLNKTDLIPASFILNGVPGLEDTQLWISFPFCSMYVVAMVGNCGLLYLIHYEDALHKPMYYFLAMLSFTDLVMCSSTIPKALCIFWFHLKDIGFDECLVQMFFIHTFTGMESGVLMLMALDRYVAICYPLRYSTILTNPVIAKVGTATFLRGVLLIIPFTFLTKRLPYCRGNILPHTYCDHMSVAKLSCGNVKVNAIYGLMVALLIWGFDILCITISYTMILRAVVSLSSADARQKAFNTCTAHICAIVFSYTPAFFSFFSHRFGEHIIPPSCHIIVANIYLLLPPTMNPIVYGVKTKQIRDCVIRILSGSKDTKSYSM
Procedure, shortened: as §1

O52P1 = tested on: T10, O52P1
T10 sequence (whole entry): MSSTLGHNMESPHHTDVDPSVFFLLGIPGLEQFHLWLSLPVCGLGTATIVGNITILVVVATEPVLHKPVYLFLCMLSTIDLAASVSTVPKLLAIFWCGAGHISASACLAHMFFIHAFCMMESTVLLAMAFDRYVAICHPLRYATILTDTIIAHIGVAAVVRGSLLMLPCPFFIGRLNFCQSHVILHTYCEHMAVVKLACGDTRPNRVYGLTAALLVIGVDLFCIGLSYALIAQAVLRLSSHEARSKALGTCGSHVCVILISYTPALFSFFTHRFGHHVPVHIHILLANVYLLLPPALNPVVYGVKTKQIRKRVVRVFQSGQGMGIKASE
Procedure, shortened: as §1

Measured: odorant receptor agonist call

CCC(C)=O
inactive: all assays above

CS
inactive: all assays above

CCCCOC(C)=O
inactive: all assays above
